Measured values as given in patent US20220363752A1.
These are yes or no findings as the source states them, for the method shown. Some results given as binding are weak or reduced against the parent protein; the word gives no strength.

By UniProt entry, the sequences of proteins in these tests, tags left out. Where a name states a change or a piece, a line headed by the entry shows the natural chain unless it says otherwise.
UniProt Q8N386: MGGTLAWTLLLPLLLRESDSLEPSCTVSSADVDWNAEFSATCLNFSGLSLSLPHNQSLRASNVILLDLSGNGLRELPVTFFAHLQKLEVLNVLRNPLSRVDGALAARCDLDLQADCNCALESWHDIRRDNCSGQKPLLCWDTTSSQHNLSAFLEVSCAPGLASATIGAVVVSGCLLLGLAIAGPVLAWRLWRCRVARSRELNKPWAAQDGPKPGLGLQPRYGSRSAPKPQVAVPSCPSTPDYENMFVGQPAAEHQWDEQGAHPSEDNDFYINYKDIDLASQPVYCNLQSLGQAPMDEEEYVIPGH

T1: LRRC25(96-115) biotin peptide (human)
T1 sequence (peptide, N-terminal acetyl; C-terminal GGK-Biotin; native Cys changed to Ser): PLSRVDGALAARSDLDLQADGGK

B1: anti-LRRC25 chimeric antibody 1E01 (antibody, human IgG4, V domains shown)
VH: DVQLVESGGGLVKPGGSLKLSCAASGFTFSNYAMSWVRQTPEKRLEWVASISRGGNTYYPDSVKGRFTISRDNARNILYLQMSSLRSEDTAIYYCTRGNYGSSLFAYWGQGTLVTVSA
VL: DIVLTQSPASLTVSLGQRATISCRASKSVSTSGYSYMHWYQQKPGQPPKLLIYLASNLESGVPARFSGSGSRTDFTLTIDPVEADDAATYYCQQNNEDPWTFGGGTKLEIKR
B2: anti-LRRC25 chimeric antibody 2D09 (antibody, human IgG4, V domains shown)
VH: QVTLKESGPGTVQPSQTLSLTCSFSGFSLSTSGMGVSWIRQSSGKGLEWLAHIYWDDDKRYNPSLKSRLTISKDTSSNQVFLRITSVDTADTATYYCARRPRDFYGGGHWYFDVWGAGTTVTVSS
VL: DVVMTQTPKSMSMSVGERVTLNCKASENVGTYVSWYQQKPEQSPKLLIYGASNRYTGVPDRFTGSGSATDFTLTISSMQAEDLADYHCGQSYNFPLTFGAGTKLELKR
B3: anti-LRRC25 chimeric antibody 3A08 (antibody, human IgG4)
heavy: DVKLVESGGGLVKPGGSLKLSCAVSGFTLSSYAMSWVRQTPEKRLEWVASISRGGSTYYPDSVKGRFTISRDNGRNILNLQMSSLRSEDTAIYYCARGGGSTMITSLFAYWGQGTLVTVSAASTKGPSVFPLAPCSRSTSESTAALGCLVKDYFPEPVTVSWNSGALTSGVHTFPAVLQSSGLYSLSSVVTVPSSSLGTKTYTCNVDHKPSNTKVDKRVESKYGPPCPPCPAPEFLGGPSVFLFPPKPKDTLMISRTPEVTCVVVDVSQEDPEVQFNWYVDGVEVHNAKTKPREEQFNSTYRWSVLTVLHQDWLNGKEYKCKVSNKGLPSSIEKTISKAKGQPREPQVYTLPPSQEEMTKNQVSLTCLVKGFYPSDIAVEWESNGQPENNYKTTPPVLDSDGSFFLYSRLTVDKSRWQEGNVFSCSVMHEALHNHYTQKSLSLSLGK
light: DIVMTQAAFSNPVTLGTSASISCRSSKSLLHSNGITYLYWYLQKPGQSPQLLIYQMSNLASGVPDRFSSSGSGTDFTLRISRVEAEDVGVYYCAQNLELPFTFGSGTKLEIKRTVAAPSVFIFPPSDEQLKSGTASVVCLLNNFYPREAKVQWKVDNALQSGNSQESVTEQDSKDSTYSLSSTLTLSKADYEKHKVYACEVTHQGLSSPVTKSFNRGEC
B4: anti-LRRC25 chimeric antibody 1E11 (antibody, human IgG4, V domains shown)
VH: EVQLLETGGGLVKPGGSLKLSCAASGFTFSSSAMSWVRQTPEKRLEWVTSISRGGNTYYPDSVKGRFTISRDNARNILYLQMSSLRSEDTAMYYCARGQELRLFAYWGQGTLVTVSA
VL: DIVMTQDAFSNPVTLGTSASISCRSSKSLLHSNGITYLYWYLQKPGQSPQLLIYQMSNLASGVPDRFSSSGSGTDFTLRISRVEAEDVGVYYCAQNLELPFTFGSGTKLEIKR
B5: anti-LRRC25 chimeric antibody 1F01 (antibody, human IgG4, V domains shown)
VH: EVKLEESGGGLVKPGGSLKLSCAASGFTFSNYAMSWVRQTPEKRLEWVASISRGGNTYYPDSVKGRFTISRDNARNILYLQMSSLRSEDTATYFCTKGNYGSSPFAYWGQGTLVTVSA
VL: DIQMTQSPASLSASVGETVTITCRASENIYSYLAWYQQKQGKSPQLLVYNAKTLAEGVPSRFSGSGSGTQFSLKINSLQPEDFGSYYCQHHYGTPFTFGSGTKLEIKR
B6: anti-LRRC25 chimeric antibody 1H04 (antibody, human IgG4, V domains shown)
VH: EVQLVESGGGLVKPGGSLKLSCAASGFTFSNSAMSWVRQTPEKRLEWVASISRGGKTYYPDSVKGRFTISRDNARNILYLQMSSLRSEDTAMYYCARGQELRLFAYWGQGTLVTVSA
VL: DIVMTQDAFSNPVTLGTSASISCRSSKSLLHSNGITYLYWYLQKPGQSPQLLIYQMSNLASGVPDRFSSSGSGTDFTLRISRVEAEDVGVYYCAQNLELPFTFGSGTKLEIKR
B7: anti-LRRC25 chimeric antibody 1H09 (antibody, human IgG4, V domains shown)
VH: DVQLVESGGGLVKPGGSLKLSCAASGFTFSSYAMSWVRQTPEKRLEWVASISRGGNTYYPDSVKGRFTISRDNARNILYLQMSSLRSEDTAMYYCARGNYGNSPFAYWGQGALVTVSA
VL: DVVMTQTPASLAVSLGQRATISCRASESVDSYGNSFMHWYQQKPGQPPKLLIYLASNLESGVPARFSGSGSRTDFTLTIDPVEADDAATYYCQQNNEDPFTFGSGTKLEIKR
B8: anti-LRRC25 chimeric antibody 3F06 (antibody, human IgG4, V domains shown)
VH: DVMLVESGGGLVKPGGSLKLSCAASGFTFSSYAMSWVRQTPDKRLEWVASISSSGNTYYPDTMKGRFTISRDNARNILYLQMSSLRSEDTAMYYCARGLTGTLFAYWGQGTLVTVSA
VL: DIVMTQDAPSVPVTPGESVSISCRSSKSLLHSNGITFLYWFLQKPGQSPQLLIYQMSNLASGVPDRFSSSGSGTDFTLRISRVEAEDVGVYYCAQNLELPFTFGSGTKLEIGR
B9: anti-LRRC25 chimeric antibody 1A01 (antibody, human IgG4, V domains shown)
VH: EVKLLESGGGLVKPGGSLKLSCAASGFTFSSYAMSWVRQTPEKRLEWVASISRGGNTYYPDSVKGRFTISRDNARNILYLQMSSLRSEDTAMYYCARGNYGNSPFAYWGQGTLVTVSA
VL: DIVMTQSPASLAVSLGQRATISCRASKSVSTSGYSYMHWYQQKPGQPPKLLIYLASNLESGVPARFSGSGSGTDFTLNIHPVEEEDAATYYCQHSRELPFTFGSGTKLEIKR
B10: anti-LRRC25 chimeric antibody 1B03 (antibody, human IgG4, V domains shown)
VH: EVQLVESGGGLVKPGGSLKLSCAASGFTFSSYAMSWVRQTPEKRLEWVASISRGGNTYYPDSMKGRFTISRDNARNILYLQMSSLRSEDTAMYYCARGQELRLFAYWGQGTLVTVSA
VL: QILLTQSPASLAVSLGQRATISCRASESVDSYGNSFMHWYQQKPGQPPKLLIYLASNLESGVPARFSGSGSRTDFTLTIDPVEADDAATYYCQQNNEDPWTFGGGTKLEIKR
B11: anti-LRRC25 chimeric antibody 1C10 (antibody, human IgG4, V domains shown)
VH: EEKLDESGGGLVKPGGSLKLSCAASGFTFSSYAMSWVRQTPEKRLEWVASISRGGNTYYPDSVKGRFTISRDNARNILYLQMSSLRSEDTAMFYCARGDYGSSLFAYWGQGTLVTVSA
VL: DIVMTQAAFSNPVTLGTSASISCRSSKSLLHSNGITYLYWYLQKPGQSPQLLIYQMSNLASGVPDRFSSSGSGTDFTLRISRVEAEDVGVYYCAQNLELPFTFGSGTKLEIKR
B12: anti-LRRC25 chimeric antibody 2A07 (antibody, human IgG4, V domains shown)
VH: EVKLDESGGGLVQPGGSLKLSCATSGFTFSDYYMYWVRQTPEKRLEWVAYISNGGGSTYYPDTVKGRFTISRDNAKNTLYLQMSRLKSEDTAMYYCARSTAVSQMDYWGQGTSVTVSS
VL: DIVLTQSPAIMSASPGEKVTLTCSASSSVRSSYLNWYQQKPGSSPKLWIHGTSNLASGVPARFSGSGSGTSYSLTISSMEAEDAASYFCHQWSSYPPTFGAGTKLELKR
B13: anti-LRRC25 chimeric antibody 2C07 (antibody, human IgG4, V domains shown)
VH: QITLKESGPGILQPSQTLSLTCSFSGFSLTTSGMGVSWIRQPSGKGLEWLAHIYWDDDKRYNPSLRSRLTISKDTSSNQVVLKLTNVDTADTATYYCARRARDYYNSGHWYFDVWGAGTTVTVSS
VL: DVVMTQTPKSMSMSVGERVTLSCKASENVGTYVSWYQQKPDQSPKLLIFGASNRYTGVPDRFTGSGSATDFTLTISSVQAEDLADYHCGQTYSFPFTFGSGTKLEIKR
B14: anti-LRRC25 chimeric antibody 2C08 (antibody, human IgG4, V domains shown)
VH: QVTLKESGPGILQPSQTLSLTCSFSGFSLSTSGMGVSWIRQPSGKGLEWLAHIYWDDDKRYNPSLKSRLTLSKDTSSNQVFLKITSVDTADTATYYCARRPRDYYGGGHWYFDVWGAGTTVTVSS
VL: DIVMTQSPKSMSMSVGERVTLTCKASENVGTYVSWYQQKAEQSPKLLIYGASNRYTGVPDRFTGSGSATDFTLTISNVQTEDLADYHCGQSYSYPFTFGSGTKLEIKR
B15: anti-LRRC25 chimeric antibody 3C07 (antibody, human IgG4, V domains shown)
VH: EVKLDESGGGLVKPGGSLKLSCAASGFTFSRYAMSWVRQTPEKRLEWVASISRGGSTYYPDSVKGRFTISRDIARDILYLQMSSLRSEDTAMYYCARGNYGSSLFAYWGQGTLVTVSA
VL: DIVMTQAAFSNPVTLGTSASISCRSSKSLLHSNGITYLYWYLQKPGQSPQLLIYQMSNLASGVPDRFSSSGSGTDFTLRISRVEAEDVGVYYCAQNLELPWTFGGGTKLEIKR
B16: anti-LRRC25 chimeric antibody 1A03 (antibody, human IgG4, V domains shown)
VH: EVQLVESGGGLVKPGGSLKLSCAASGFTFSSSAVSWVRQTPEKRLEWVASISRGGNTYYPDSVKGRFTISRDNARNILYLQMSSLRSEDTAMYYCARGQELRLFAYWGQGTLVTVSA
VL: DIVMTQAAFSNPVTLGTSASISCRSSKSLLHSNGITYLYWYLQKPGQSPQLLIYQMSNLASGVPDRFSSSGSGTDFTLRISRVEAEDVGVYYCAQNLELPPTFGGGTKLEIKR

How the values were obtained:
[1] = target: His-tagged human LRRC25 extracellular domain protein, human LRRC25-His (human) (UniProt Q8N386); assay: ELISA, antibody titrated on plate-immobilized Human LRRC25(ECD)-His, A450nm against -log [IgG] (M), left panel
[2] = target: His-tagged cynomolgus monkey LRRC25 extracellular domain protein, cyno LRRC25-His (cynomolgus monkey); assay: ELISA, antibody titrated on plate-immobilized Cyno LRRC25(ECD)-His, A450nm against -log [IgG] (M), right panel
[3] = target: T1, LRRC25(96-115) biotin peptide (human); assay: peptide ELISA
[4] = target: His-tagged human LRRC25 extracellular domain protein, human LRRC25-His (human) (UniProt Q8N386); assay: ELISA, plate-immobilized antigen
[5] = target: His-tagged cynomolgus monkey LRRC25 extracellular domain protein, cyno LRRC25-His (cynomolgus monkey); assay: ELISA, plate-immobilized antigen

Binder | binding [1] | binding [2] | binding [3] | binding [4] | binding [5]
B1 | binds | binds | binds | binds | binds
B2 | binds | binds |  | binds | binds
B3 | binds |  |  | binds | 
B4 |  |  | binds |  | binds
B5 |  |  | binds |  | 
B6 |  |  | binds |  | 
B7 |  |  | binds |  | 
B8 |  |  | binds |  | 
B9 |  |  | binds |  | binds
B10 |  |  | binds |  | binds
B11 |  |  | binds |  | binds
B12 |  |  |  |  | binds
B13 |  |  |  |  | binds
B14 |  |  |  |  | binds
B15 |  |  |  |  | binds
B16 |  |  | binds |  | 
